# Laboratory results taken from US20210290601A1, “METHODS AND COMPOSITIONS USING SYNTHETIC NANOCARRIERS COMPRISING IMMUNOSUPPRESSANT” (Selecta Biosciences, Inc., priority 2020, published 2021).
# At least one structure is not confirmed: it was looked up by name or label, or the drawing left a doubt.
# System: liver resident T cells
# Assay: Liver resident T cell profiling after ImmTOR or soluble rapamycin (Example 9)
# Assay type: in vivo, mouse
# Conditions: 200 μg rapamycin, 7 days, ImmTOR retro-orbital, soluble rapamycin intraperitoneal
smiles,measurement,setting,value
"CO[C@H]1C[C@@H]2CC[C@@H](C)[C@@](O)(O2)C(=O)C(=O)N2CCCC[C@H]2C(=O)O[C@H]([C@H](C)C[C@@H]2CC[C@@H](O)[C@H](OC)C2)CC(=O)[C@H](C)/C=C(\C)[C@@H](O)[C@@H](OC)C(=O)[C@H](C)C[C@H](C)/C=C/C=C/C=C/1C [Soluble rapamycin, rapamycin]",percentage of the CD8+ T cells,FIG. 16A,no measurable effect
same,induction of CD4+CD25+PD-1+ T cells,"vs untreated, FIG. 15A, 15B",no measurable effect
